This assay relates to urinary bladder. In words: Potentiation effect for rhythmic contraction of urinary bladder in guinea pig, Experimental Example 2. It is filed as in vivo, Hartley male guinea pigs. The following applies: Cavia porcellus, iv, read-out: AUC200 (mg/kg, i.v.). How it is done:
Potentiation effect of the compounds disclosed in Reference Examples for rhythmic contraction of urinary bladder was examined using Hartley male guinea pigs. Hartley male guinea pigs (SLC) weighing about 300 g were anesthetized with urethane (1.2 g/kg, i.p.), held, and incised at the midline of abdomen to expose the bladder. The urethra was ligated, and a polyethylene tube (PE-50) was inserted into the bladder. The internal pressure of the bladder was measured with a blood pressure amplifier (Nippon Koden), and the data was collected on a personal computer through an A/D converter (MP-30, Biopac Systems). A proper amount of physiological saline was injected into the bladder through a cannula to induce rhythmic contraction of the to bladder. […]
The area (AUC) that is formed by a curve of the internal pressure of the bladder and a base line was calculated through analytical software (Studentlab pro 2.1.5, Biopac Systems) to evaluate the effect of the test compounds. […] From the dose-dependent curve of AUC, the dose at which AUC before drug administration was increased 2 times (AUC200) was calculated to determine potency of contraction-enhancing effect of the test compounds for the muscle of urinary bladder. In addition, the potency of contraction-enhancing effect of […] for the muscle of bladder was determined in the same manner as mentioned above.

Take `COc1cc2c(cc1OC)C(=O)C(CC1CCN(Cc3ccccc3)CC1)C2` (stereo not shown) [compound 29]: the ED (2-fold bladder contraction AUC) is 0.16 mg/kg.

For the origin of these results see patent publication US8252814B2, “Agents and crystals for improving excretory potency of urinary bladder” (priority 1998, dated 2012).
